Source: publication PMC7926544
These are yes or no findings as the source states them, for the method shown. Binding seen in cells or lysates may run through a third protein. Some entries that bind do so weakly or less than the wild type. Where a sequence is shown, tags or fusion partners need not be part of it.

Sequences of proteins named here, by UniProt entry; tags and fusion partners are left off.
UniProt P0DMV8: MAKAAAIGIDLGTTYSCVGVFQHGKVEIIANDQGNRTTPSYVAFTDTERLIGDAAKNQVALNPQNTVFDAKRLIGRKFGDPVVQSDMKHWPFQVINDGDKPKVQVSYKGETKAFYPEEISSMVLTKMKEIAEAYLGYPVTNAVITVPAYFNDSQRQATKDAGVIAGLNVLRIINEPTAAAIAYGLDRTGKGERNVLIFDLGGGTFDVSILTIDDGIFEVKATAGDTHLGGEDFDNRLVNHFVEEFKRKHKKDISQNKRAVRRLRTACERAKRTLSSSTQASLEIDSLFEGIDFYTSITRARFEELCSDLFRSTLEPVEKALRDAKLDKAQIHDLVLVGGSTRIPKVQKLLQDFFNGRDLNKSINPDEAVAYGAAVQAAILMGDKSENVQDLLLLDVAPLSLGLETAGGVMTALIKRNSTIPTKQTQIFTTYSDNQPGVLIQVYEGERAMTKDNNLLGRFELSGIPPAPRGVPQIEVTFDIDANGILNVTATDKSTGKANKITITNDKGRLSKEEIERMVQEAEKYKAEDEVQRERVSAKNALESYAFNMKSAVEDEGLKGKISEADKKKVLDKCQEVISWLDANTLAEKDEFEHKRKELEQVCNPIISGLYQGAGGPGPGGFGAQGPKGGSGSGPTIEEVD

Key:
[1] = biological target: Myc-Hsp70 (stress-inducible heat shock protein 70) (UniProt P0DMV8); test: co-IP; OKP cells transiently transfected with Myc-NKCC2 and Myc-Hsp70; lysate immunoprecipitated with anti-Hsp70, blot with anti-Myc
[2] = biological target: T1, GFP-STCH (UniProt P48723); test: co-IP; HEK cells transiently transfected with Myc-NKCC2 and GFP-STCH; lysate immunoprecipitated with anti-GFP, protein G-agarose beads, blot with anti-Myc; lysis buffer 0.4 M NaCl, 0.5% Nonidet P-40, 10 mM Hepes pH 7.9
T1 sequence: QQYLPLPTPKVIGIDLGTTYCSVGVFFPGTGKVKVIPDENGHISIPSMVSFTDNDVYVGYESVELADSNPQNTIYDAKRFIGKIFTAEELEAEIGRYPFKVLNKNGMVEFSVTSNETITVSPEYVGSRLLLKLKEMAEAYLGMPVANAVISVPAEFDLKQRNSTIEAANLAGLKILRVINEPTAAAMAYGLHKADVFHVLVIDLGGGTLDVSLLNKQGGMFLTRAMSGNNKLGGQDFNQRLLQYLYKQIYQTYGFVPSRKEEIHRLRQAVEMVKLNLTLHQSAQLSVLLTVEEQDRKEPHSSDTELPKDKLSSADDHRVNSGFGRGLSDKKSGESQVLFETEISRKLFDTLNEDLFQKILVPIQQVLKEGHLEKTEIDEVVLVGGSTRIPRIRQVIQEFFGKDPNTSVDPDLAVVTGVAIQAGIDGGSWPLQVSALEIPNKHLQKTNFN

[3] = biological target: T1, GFP-STCH; test: co-IP; OKP cells transiently transfected with Myc-NKCC2 and GFP-STCH; lysate immunoprecipitated with anti-GFP, blot for NKCC2

binding [1]: binds
binding [2]: binds
binding [3]: binds
B1: Myc-NKCC2 (mouse Na-K-2Cl co-transporter NKCC2) (protein, UniProt P55014 1-1095)
chain: MSVSIPSNSVPSSASRFQVHVINEGHGSAAAVGDSADPPHYEETSFGDEAQNRLRISFRPGNQECYDNFLQTGETAKTDTTFHAYDSHTNTYYLQTFGHNTMDAVPKIEYYRNTGSVSGPKVNRPSLLEIHEQLAKNVTVAPGSADRVANGDGMPGDEQAENKEEDMTGVVKFGWVKGVLVRCMLNIWGVMLFIRLSWIVGEAGIGLGVLIILLSTMVTSITGLSTSAIATNGFVRGGGAYYLISRSLGPEFGGSIGLIFAFANAVAVAMYVVGFAETVVDLLKESDSMMVDPTNDIRIIGSITVVILLGISVAGMEWEAKAQVILLVILLIAIANFFIGTVIPSNNEKKSRGFFNYQASIFAENFGPSFTKGEGFFSVFAIFFPAATGILAGANISGDLEDPQDAIPRGTMLAIFITTVAYIGVAICVAACVVRDATGSMNDTIVSGMNCNGSAACGLGYDFSRCQHEPCQYGLMNNFQVMSMVSGFGPLITAGIFSATLSSALASLVSAPKVFQALCKDNIFKGLQFFAKGYGKNNEPLRGYFLTFVIAMAFILIAELNVIAPIISNFFLASYALINFSCFHASYAKSPGWRPAYGIYNMWVSLFGAILCCAVMFVINWWAAVITYVIELFLYIYVTYKKPDVNWGSSTQALSYVSALDNALELTTVEDHVKNFRPQCIVLTGGPMTRPALLDITHAFTKNSGLCICCEVFVGPRKLCVKEMNSGMAKKQAWLIKNKIKAFYAAVAADCFRDGVRSLLQASGLGRMKPNTLVIGYKKNWRKAPLSELENYVGIIHDAFDFEIGVVIVRISQGFDISPVLQVQDELEKLEQERLALEAAIKDNECEEGKGGIRGLFKKAGKLNITKPAPKKDGNISSIQSMHVGEFNQKLVEASAQFKKKQGKGTIDVWWLFDDGGLTLLIPYILTLRKKWKDCKLRIYVGGKITRIEEEKISMASLLSKFRIKFADIHIIGDINIKPNKESWKVFEEMIEPYRLHESHKDLTTAEKLKRESPWKITDAELEAVKEKSYRQVRLNELLQEHSRAANLIVLSLPVARKGSISDLLYMAWLEILTKNLPPVLLVRGNHKNVLTFYS
